Reference: PMC8384837
Substitutions are numbered along the chain they refer to. This is one part of the list. For some assays here: At the low end of the ranking the order means little.

What was measured:
Settings in all cases: yeast three-hybrid, YBZ-1, SC-Leu-His + 0.5 mM 3-AT, 4 days
[1] = molecular target: T1, PUM1 PUF domain R3-TRL C935T + Q939L (UniProt Q14671)
T1 sequence: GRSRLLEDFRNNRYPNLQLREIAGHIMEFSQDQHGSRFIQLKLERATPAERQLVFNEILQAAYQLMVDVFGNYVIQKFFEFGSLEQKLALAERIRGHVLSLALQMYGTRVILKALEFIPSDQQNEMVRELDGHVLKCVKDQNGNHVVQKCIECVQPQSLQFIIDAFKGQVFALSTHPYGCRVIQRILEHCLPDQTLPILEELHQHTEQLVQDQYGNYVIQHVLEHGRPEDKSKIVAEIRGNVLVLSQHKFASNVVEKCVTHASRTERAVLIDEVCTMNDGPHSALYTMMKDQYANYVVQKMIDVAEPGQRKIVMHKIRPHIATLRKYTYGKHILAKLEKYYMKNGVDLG

[2] = molecular target: T2, PUM1 PUF domain R3-TRP C935T + Q939P (UniProt Q14671)
T2 sequence: T1 sequence with L112P

[3] = molecular target: T3, PUM1 PUF domain R3-TRW C935T + Q939W (UniProt Q14671)
T3 sequence: T1 sequence with L112W

[4] = molecular target: T4, PUM1 PUF domain R3-TSR C935T + R936S + Q939R (Homo sapiens) (UniProt Q14671)
T4 sequence: T1 sequence with R109S, L112R

[5] = molecular target: T5, PUM1 PUF domain R3-TVE C935T + R936V + Q939E (UniProt Q14671)
T5 sequence: T1 sequence with R109V, L112E

[6] = molecular target: T6, PUM1 PUF domain R3-VCE C935V + R936C + Q939E (UniProt Q14671)
T6 sequence: T1 sequence with T108V, R109C, L112E

[7] = molecular target: T7, PUM1 PUF domain R3-VCK C935V + R936C + Q939K (Homo sapiens) (UniProt Q14671)
T7 sequence: T1 sequence with T108V, R109C, L112K

[8] = molecular target: T8, PUM1 PUF domain R3-VFA C935V + R936F + Q939A (Homo sapiens) (UniProt Q14671)
T8 sequence: T1 sequence with T108V, R109F, L112A

[9] = molecular target: T9, PUM1 PUF domain R3-VFF C935V + R936F + Q939F (Homo sapiens) (UniProt Q14671)
T9 sequence: T1 sequence with T108V, R109F, L112F

[10] = molecular target: T10, PUM1 PUF domain R3-VFG C935V + R936F + Q939G (Homo sapiens) (UniProt Q14671)
T10 sequence: T1 sequence with T108V, R109F, L112G

[11] = molecular target: T11, PUM1 PUF domain R3-VFW C935V + R936F + Q939W (UniProt Q14671)
T11 sequence: T1 sequence with T108V, R109F, L112W

[12] = molecular target: T12, PUM1 PUF domain R3-VFY C935V + R936F + Q939Y (UniProt Q14671)
T12 sequence: T1 sequence with T108V, R109F, L112Y

[13] = molecular target: T13, PUM1 PUF domain R3-VHP C935V + R936H + Q939P (UniProt Q14671)
T13 sequence: T1 sequence with T108V, R109H, L112P

[14] = molecular target: T14, PUM1 PUF domain R3-VNV C935V + R936N + Q939V (UniProt Q14671)
T14 sequence: T1 sequence with T108V, R109N, L112V

[15] = molecular target: T15, PUM1 PUF domain R3-VRA C935V + Q939A (UniProt Q14671)
T15 sequence: T1 sequence with T108V, L112A

[16] = molecular target: T16, PUM1 PUF domain R3-VRC C935V + Q939C (UniProt Q14671)
T16 sequence: T1 sequence with T108V, L112C

[17] = molecular target: T17, PUM1 PUF domain R3-VRF C935V + Q939F (UniProt Q14671)
T17 sequence: T1 sequence with T108V, L112F

[18] = molecular target: T18, PUM1 PUF domain R3-VRG C935V + Q939G (UniProt Q14671)
T18 sequence: T1 sequence with T108V, L112G

[19] = molecular target: T19, PUM1 PUF domain R3-VRH C935V + Q939H (UniProt Q14671)
T19 sequence: T1 sequence with T108V, L112H

[20] = molecular target: T20, PUM1 PUF domain R3-VRI C935V + Q939I (UniProt Q14671)
T20 sequence: T1 sequence with T108V, L112I

[21] = molecular target: T21, PUM1 PUF domain R3-VRL C935V + Q939L (UniProt Q14671)
T21 sequence: T1 sequence with T108V

[22] = molecular target: T22, PUM1 PUF domain R3-VRM C935V + Q939M (UniProt Q14671)
T22 sequence: T1 sequence with T108V, L112M

[23] = molecular target: T23, PUM1 PUF domain R3-VRN C935V + Q939N (Homo sapiens) (UniProt Q14671)
T23 sequence: T1 sequence with T108V, L112N

[24] = molecular target: T24, PUM1 PUF domain R3-VRS C935V + Q939S (UniProt Q14671)
T24 sequence: T1 sequence with T108V, L112S

[25] = molecular target: T25, PUM1 PUF domain R3-VRT C935V + Q939T (UniProt Q14671)
T25 sequence: T1 sequence with T108V, L112T

[26] = molecular target: T26, PUM1 PUF domain R3-VRV C935V + Q939V (UniProt Q14671)
T26 sequence: T1 sequence with T108V, L112V

[27] = molecular target: T27, PUM1 PUF domain R3-VRW C935V + Q939W (UniProt Q14671)
T27 sequence: T1 sequence with T108V, L112W

[28] = molecular target: T28, PUM1 PUF domain R3-VRY C935V + Q939Y (UniProt Q14671)
T28 sequence: T1 sequence with T108V, L112Y

[29] = molecular target: T29, PUM1 PUF domain R3-VSK C935V + R936S + Q939K (UniProt Q14671)
T29 sequence: T1 sequence with T108V, R109S, L112K

**Q.** How did the binding signal (log2 enrichment (interaction score)) [1] turn out when “GGCUAGAACUAGUGGAUCCCCCGGCGCCCGGCGGCUCGAGCCCGGGUAAGUGUAACUAGUCUGCAUGCCGCCGGGCGCCAUGCCUGCAGGUCGACUCUAGAAAACAUG” was run?
**A.** -4.17

**Q.** What about the binding signal (log2 enrichment (interaction score)) [2] of the same sequence?
**A.** -6.9

**Q.** What about the binding signal (log2 enrichment (interaction score)) [3] of the same sequence?
**A.** < -7.73

**Q.** And the binding signal (log2 enrichment (interaction score)) [4]?
**A.** -0.35

**Q.** And the binding signal (log2 enrichment (interaction score)) [5]?
**A.** < -7.83

**Q.** What about the binding signal (log2 enrichment (interaction score)) [6] of the same sequence?
**A.** < -7.6

**Q.** What about the binding signal (log2 enrichment (interaction score)) [7] of the same sequence?
**A.** -1.89

**Q.** And the binding signal (log2 enrichment (interaction score)) [8]?
**A.** -0.53

**Q.** What about the binding signal (log2 enrichment (interaction score)) [9] of the same sequence?
**A.** 0.04

**Q.** What about the binding signal (log2 enrichment (interaction score)) [10] of the same sequence?
**A.** 0.34

**Q.** What about the binding signal (log2 enrichment (interaction score)) [11] of the same sequence?
**A.** < -7.78

**Q.** What about the binding signal (log2 enrichment (interaction score)) [12] of the same sequence?
**A.** < -7.98

**Q.** What about the binding signal (log2 enrichment (interaction score)) [13] of the same sequence?
**A.** < -8.09

**Q.** What about the binding signal (log2 enrichment (interaction score)) [14] of the same sequence?
**A.** < -7.65

**Q.** What about the binding signal (log2 enrichment (interaction score)) [15] of the same sequence?
**A.** < -10.1

**Q.** What about the binding signal (log2 enrichment (interaction score)) [16] of the same sequence?
**A.** < -8.92

**Q.** And the binding signal (log2 enrichment (interaction score)) [17]?
**A.** < -8.52

**Q.** And the binding signal (log2 enrichment (interaction score)) [18]?
**A.** -4.44

**Q.** What about the binding signal (log2 enrichment (interaction score)) [19] of the same sequence?
**A.** < -8.81

**Q.** What about the binding signal (log2 enrichment (interaction score)) [20] of the same sequence?
**A.** < -7.52

**Q.** And the binding signal (log2 enrichment (interaction score)) [21]?
**A.** < -10.6

**Q.** What about the binding signal (log2 enrichment (interaction score)) [22] of the same sequence?
**A.** < -7.99

**Q.** What about the binding signal (log2 enrichment (interaction score)) [23] of the same sequence?
**A.** -2.17

**Q.** And the binding signal (log2 enrichment (interaction score)) [24]?
**A.** -3.89

**Q.** And the binding signal (log2 enrichment (interaction score)) [25]?
**A.** < -7.08

**Q.** What about the binding signal (log2 enrichment (interaction score)) [26] of the same sequence?
**A.** -2.42

**Q.** What about the binding signal (log2 enrichment (interaction score)) [27] of the same sequence?
**A.** < -9.22

**Q.** What about the binding signal (log2 enrichment (interaction score)) [28] of the same sequence?
**A.** < -7.9

**Q.** What about the binding signal (log2 enrichment (interaction score)) [29] of the same sequence?
**A.** -4.49
